Results are given in words; binding and its absence hold for the method and conditions named. Binding seen in cells or lysates may run through a third protein. Some results given as binding are weak or reduced against the parent protein; the word gives no strength.
Molecular target: EphrinA2 (EphA2) receptor tyrosine kinase (human (endogenous in HFF)) (UniProt P29317)
Experiment: co-IP; lysates of serum-starved HFF cells, mock or KSHV infected (5, 10, 30 min); IP with anti-EphA2 antibody, Western blot for c-Cbl, clathrin heavy chain, AP2, Epsin15, FAK, Src, PI3-K; also in untransfected and control siRNA cells (5 min p.i.); heparin-pretreated KSHV as specificity control

By UniProt entry, the sequences of proteins in these tests, tags left out. Residues count along the entry.
UniProt P29317, residues 24-976: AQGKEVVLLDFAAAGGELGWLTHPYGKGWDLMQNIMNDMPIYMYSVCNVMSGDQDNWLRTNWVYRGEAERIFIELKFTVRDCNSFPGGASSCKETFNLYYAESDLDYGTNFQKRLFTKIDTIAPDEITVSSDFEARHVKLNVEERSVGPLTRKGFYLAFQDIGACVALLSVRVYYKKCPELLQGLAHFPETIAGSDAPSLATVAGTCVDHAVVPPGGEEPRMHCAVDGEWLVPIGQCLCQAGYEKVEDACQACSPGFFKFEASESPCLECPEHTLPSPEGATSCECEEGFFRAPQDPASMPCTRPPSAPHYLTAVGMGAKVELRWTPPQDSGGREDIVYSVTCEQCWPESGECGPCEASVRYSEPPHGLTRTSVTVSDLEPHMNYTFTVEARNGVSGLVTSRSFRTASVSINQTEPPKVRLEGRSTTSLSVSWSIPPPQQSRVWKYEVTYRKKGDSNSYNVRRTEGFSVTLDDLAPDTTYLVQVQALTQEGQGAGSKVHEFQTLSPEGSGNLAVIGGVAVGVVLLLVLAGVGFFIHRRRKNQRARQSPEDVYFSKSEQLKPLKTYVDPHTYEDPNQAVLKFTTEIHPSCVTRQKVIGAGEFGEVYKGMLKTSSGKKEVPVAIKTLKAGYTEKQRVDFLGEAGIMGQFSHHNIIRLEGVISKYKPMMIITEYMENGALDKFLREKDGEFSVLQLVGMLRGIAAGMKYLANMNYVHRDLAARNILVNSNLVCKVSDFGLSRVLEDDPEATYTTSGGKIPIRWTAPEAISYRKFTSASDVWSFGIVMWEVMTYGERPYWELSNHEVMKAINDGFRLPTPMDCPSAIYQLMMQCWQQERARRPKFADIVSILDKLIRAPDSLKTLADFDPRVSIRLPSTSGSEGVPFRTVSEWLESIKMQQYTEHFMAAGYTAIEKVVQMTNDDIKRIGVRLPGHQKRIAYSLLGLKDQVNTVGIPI
UniProt Q05397: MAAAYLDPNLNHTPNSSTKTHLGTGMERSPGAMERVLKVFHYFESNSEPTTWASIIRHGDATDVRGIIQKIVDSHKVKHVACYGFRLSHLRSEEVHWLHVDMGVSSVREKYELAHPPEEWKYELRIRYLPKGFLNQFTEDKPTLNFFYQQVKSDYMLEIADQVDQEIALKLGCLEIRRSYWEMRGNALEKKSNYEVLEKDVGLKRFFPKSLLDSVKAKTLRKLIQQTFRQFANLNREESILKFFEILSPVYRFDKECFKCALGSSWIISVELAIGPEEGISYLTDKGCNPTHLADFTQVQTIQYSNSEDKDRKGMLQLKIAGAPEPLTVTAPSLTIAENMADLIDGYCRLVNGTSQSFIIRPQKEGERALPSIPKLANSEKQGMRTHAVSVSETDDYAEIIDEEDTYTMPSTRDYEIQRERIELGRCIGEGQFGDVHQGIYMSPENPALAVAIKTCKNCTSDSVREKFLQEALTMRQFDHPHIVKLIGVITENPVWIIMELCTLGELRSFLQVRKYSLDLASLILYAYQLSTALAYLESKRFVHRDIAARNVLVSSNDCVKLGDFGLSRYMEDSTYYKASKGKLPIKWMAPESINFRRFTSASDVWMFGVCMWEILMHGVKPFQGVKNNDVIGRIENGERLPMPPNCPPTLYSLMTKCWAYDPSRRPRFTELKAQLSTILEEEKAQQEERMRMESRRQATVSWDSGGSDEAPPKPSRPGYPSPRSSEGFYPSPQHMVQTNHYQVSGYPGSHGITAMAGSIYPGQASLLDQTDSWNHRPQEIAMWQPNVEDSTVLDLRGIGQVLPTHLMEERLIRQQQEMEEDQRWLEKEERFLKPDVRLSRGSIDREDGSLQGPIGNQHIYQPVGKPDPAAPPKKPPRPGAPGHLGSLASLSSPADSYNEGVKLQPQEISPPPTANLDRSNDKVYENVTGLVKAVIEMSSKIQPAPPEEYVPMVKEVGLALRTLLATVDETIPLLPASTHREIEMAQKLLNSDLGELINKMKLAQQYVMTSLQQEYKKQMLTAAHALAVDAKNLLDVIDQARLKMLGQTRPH

## FAK (from UniProt Q05397 1-1052) (enzyme)
  binding: binds

Source: publication PMC3715429
